{
  "sequences": {"note": "Chains of the proteins cited; added tags and fusions are not shown.", "UniProt P46013": "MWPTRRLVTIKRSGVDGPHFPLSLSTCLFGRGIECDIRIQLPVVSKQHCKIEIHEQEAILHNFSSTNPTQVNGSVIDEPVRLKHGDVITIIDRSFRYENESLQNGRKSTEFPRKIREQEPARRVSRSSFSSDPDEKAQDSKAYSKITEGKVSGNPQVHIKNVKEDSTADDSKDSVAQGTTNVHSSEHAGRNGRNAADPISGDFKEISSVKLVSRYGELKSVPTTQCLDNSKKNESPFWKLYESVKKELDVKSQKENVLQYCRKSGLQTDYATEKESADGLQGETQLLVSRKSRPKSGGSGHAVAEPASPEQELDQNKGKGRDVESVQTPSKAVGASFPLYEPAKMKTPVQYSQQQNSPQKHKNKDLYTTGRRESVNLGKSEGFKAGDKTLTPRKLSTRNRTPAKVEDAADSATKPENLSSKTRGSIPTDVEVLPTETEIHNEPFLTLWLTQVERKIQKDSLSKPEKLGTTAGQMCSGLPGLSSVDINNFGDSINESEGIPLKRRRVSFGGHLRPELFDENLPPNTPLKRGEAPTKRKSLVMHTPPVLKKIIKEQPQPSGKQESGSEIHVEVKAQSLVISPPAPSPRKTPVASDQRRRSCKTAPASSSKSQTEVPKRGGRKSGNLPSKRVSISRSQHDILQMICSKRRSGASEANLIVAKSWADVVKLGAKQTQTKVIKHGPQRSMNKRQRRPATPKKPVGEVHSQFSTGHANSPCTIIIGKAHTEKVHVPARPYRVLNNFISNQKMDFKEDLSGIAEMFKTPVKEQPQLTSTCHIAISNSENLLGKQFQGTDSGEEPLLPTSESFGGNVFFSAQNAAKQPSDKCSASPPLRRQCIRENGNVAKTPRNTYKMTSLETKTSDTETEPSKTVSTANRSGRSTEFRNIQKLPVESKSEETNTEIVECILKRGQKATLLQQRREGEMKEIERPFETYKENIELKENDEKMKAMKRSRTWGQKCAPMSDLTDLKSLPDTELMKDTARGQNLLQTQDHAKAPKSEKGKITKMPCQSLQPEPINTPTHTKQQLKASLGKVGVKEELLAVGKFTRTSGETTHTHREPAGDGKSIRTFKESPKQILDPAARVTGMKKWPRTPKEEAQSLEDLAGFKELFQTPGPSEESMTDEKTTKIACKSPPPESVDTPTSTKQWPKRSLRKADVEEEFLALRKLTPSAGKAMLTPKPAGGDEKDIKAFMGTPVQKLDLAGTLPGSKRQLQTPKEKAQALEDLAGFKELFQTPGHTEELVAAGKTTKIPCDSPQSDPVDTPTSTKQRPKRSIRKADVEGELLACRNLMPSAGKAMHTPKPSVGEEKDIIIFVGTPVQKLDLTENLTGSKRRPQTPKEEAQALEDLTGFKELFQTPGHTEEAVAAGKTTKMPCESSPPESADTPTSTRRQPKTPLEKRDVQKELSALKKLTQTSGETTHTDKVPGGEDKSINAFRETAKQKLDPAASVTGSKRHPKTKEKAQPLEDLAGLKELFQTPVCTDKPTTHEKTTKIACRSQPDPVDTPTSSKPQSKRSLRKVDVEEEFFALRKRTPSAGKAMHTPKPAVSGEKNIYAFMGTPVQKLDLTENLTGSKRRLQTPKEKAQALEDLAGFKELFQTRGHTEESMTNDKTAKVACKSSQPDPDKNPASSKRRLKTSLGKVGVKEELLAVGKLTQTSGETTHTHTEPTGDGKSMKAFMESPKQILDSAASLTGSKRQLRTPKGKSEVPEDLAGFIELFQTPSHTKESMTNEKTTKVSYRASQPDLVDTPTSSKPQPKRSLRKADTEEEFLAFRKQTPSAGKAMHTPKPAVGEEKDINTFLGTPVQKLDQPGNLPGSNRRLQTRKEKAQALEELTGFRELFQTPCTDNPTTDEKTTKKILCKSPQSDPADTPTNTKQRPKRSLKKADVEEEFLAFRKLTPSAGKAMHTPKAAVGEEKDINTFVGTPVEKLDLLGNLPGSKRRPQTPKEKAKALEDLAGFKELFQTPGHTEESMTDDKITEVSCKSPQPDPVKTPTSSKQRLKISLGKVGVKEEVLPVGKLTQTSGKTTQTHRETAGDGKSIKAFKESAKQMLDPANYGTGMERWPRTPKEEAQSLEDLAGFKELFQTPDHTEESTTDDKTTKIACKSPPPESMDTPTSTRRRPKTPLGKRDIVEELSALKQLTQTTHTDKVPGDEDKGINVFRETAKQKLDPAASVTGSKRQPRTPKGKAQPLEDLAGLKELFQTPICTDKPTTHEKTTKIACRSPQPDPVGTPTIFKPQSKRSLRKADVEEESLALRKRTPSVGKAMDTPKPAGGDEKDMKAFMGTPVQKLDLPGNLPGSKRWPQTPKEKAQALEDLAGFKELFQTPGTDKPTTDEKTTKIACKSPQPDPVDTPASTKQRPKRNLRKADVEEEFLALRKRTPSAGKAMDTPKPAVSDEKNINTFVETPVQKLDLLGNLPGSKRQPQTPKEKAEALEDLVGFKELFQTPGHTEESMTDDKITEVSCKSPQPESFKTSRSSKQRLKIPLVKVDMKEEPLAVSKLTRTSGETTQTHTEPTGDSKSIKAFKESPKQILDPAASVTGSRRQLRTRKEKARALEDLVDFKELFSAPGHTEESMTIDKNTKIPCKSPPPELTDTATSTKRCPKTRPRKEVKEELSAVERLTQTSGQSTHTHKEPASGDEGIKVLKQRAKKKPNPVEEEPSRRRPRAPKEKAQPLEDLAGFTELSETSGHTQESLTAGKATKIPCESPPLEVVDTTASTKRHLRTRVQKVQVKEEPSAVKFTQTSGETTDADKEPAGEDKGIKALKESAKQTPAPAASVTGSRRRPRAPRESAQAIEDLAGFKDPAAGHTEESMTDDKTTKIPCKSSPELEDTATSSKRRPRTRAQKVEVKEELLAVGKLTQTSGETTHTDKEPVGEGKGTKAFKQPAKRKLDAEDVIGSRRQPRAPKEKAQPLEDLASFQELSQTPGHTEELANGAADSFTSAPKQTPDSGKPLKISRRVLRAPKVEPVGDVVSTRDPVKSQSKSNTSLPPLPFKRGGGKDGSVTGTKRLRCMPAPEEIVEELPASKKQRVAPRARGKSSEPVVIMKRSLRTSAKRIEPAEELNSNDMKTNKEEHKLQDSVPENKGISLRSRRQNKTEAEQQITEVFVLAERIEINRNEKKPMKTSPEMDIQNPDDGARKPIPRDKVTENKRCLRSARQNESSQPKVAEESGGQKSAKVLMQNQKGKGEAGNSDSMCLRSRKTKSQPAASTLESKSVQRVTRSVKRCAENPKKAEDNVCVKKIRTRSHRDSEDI"},
  "source": "paper doi:10.1101/2024.04.29.591626",
  "target": "T1, CENP-B (human (endogenous in HCT116)) (UniProt P07199)",
  "T1 sequence": "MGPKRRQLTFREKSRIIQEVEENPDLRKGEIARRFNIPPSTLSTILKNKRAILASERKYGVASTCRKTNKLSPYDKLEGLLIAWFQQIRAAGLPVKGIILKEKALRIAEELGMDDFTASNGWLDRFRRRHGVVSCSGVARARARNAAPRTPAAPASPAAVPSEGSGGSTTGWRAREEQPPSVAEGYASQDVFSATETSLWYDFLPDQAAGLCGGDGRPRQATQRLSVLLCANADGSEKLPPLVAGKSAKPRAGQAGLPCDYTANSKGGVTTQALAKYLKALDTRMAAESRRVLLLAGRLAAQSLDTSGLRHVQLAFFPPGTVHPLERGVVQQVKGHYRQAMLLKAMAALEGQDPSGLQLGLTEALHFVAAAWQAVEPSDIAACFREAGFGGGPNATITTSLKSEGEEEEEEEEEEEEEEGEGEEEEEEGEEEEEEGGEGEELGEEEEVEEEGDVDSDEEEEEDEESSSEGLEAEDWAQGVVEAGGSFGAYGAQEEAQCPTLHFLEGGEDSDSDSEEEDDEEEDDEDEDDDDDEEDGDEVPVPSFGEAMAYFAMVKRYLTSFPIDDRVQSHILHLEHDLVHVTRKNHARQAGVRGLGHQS",
  "assay": "proximity ligation",
  "note": "These are yes or no findings as the source states them, for the method shown. Binding seen in cells or lysates may run through a third protein. Some results given as binding are weak or reduced against the parent protein; the word gives no strength.",
  "data": [
    {"substance": "Ki-67-mAID-mClover (from UniProt P46013 1-3256)", "values": [
      {"measurement": "binding", "result": "binds"}
    ]}
  ]
}
